Experimental findings from doi:10.1101/194993 are described below.

Where two headings read alike, the source gives them in different places. These are yes or no findings as the source states them, for the method shown. Binding calls can cover weak binding; strength is not graded here. Where a sequence is shown, tags or fusion partners need not be part of it.

Common to all, as to test: co-sedimentation
Test [1] concerns the target native tubulin purified from porcine brain, polymerised to microtubules (MTs) (porcine).
The target in test [2] is subtilisin-treated microtubules (ST-MT), MTs lacking E-hooks (porcine).
The target in test [3] is native tubulin purified from porcine brain, polymerised to microtubules (MTs) (porcine). The source holds these as a separate data set.

B1: Cdt1^92-410 (N-terminal GFP fusion) (domain or fragment, UniProt Q9H211 92-410)
chain: PSPGQKIKKSTPAAGQPPHLTSAQDQDTISELASCLQRARELGARVRALKASAQDAGESCTPEAEGRPEEPCGEKAPAYQRFHALAQPGLPGLVLPYKYQVLAEMFRSMDTIVGMLHNRSETPTFAKVQRGVQDMMRRRFEECNVGQIKTVYPASYRFRQERSVPTFKDGTRRSDYQLTIEPLLEQEADGAAPQLTASRLLQRRQIFSQKLVEHVKEHHKAFLASLSPAMVVPEDQLTRWHPRFNVDEVPDIEPAALPQPPATEKLTTAQEVLARARNLISPRMEKALSQLALRSAAPSSPGSPRPALPATPPATPPAA
On to B1, for which the binding entry in test [1] is “no binding”.

B2: Cdt1^92-232 (N-terminal GFP fusion) (domain or fragment, UniProt Q9H211 92-232)
chain: PSPGQKIKKSTPAAGQPPHLTSAQDQDTISELASCLQRARELGARVRALKASAQDAGESCTPEAEGRPEEPCGEKAPAYQRFHALAQPGLPGLVLPYKYQVLAEMFRSMDTIVGMLHNRSETPTFAKVQRGVQDMMRRRFE
With B2, in test [1], the binding result is “no binding”.

B3: Cdt1^92-546 8A (non-phosphorylatable mutant) (domain or fragment, UniProt Q9H211 92-546)
chain: PSPGQKIKKAAPAAGQPPHLTSAQDQDTISELASCLQRARELGARVRALKAAAQDAGESCTPEAEGRPEEPCGEKAPAYQRFHALAQPGLPGLVLPYKYQVLAEMFRSMDTIVGMLHNRSETPTFAKVQRGVQDMMRRRFEECNVGQIKTVYPASYRFRQERSVPTFKDGTRRADYQLAIEPLLEQEADGAAPQLAASRLLQRRQIFSQKLVEHVKEHHKAFLASLSPAMVVPEDQLARWHPRFNVDEVPDIEPAALPQPPATEKLATAQEVLARARNLISPRMEKALSQLALRSAAPSSPGSPRPALPATPPATPPAASPSALKGVSQDLLERIRAKEAQKQLAQMTRCPEQEQRLQRLERLPELARVLRSVFVSERKPALSMEVACARMVGSCCTIMSPGEMEKHLLLLSELLPDWLSLHRIRTDTYVKLDKAADLAHITARLAHQTRAEEGL
With B3, in test [1], the binding entry is listed as “binds”.

B4: Cdt1^92-546 (human Cdt1 devoid of the N-terminal 92 aa, N-terminal GFP fusion) (domain or fragment, UniProt Q9H211 92-546)
chain: PSPGQKIKKSTPAAGQPPHLTSAQDQDTISELASCLQRARELGARVRALKASAQDAGESCTPEAEGRPEEPCGEKAPAYQRFHALAQPGLPGLVLPYKYQVLAEMFRSMDTIVGMLHNRSETPTFAKVQRGVQDMMRRRFEECNVGQIKTVYPASYRFRQERSVPTFKDGTRRSDYQLTIEPLLEQEADGAAPQLTASRLLQRRQIFSQKLVEHVKEHHKAFLASLSPAMVVPEDQLTRWHPRFNVDEVPDIEPAALPQPPATEKLTTAQEVLARARNLISPRMEKALSQLALRSAAPSSPGSPRPALPATPPATPPAASPSALKGVSQDLLERIRAKEAQKQLAQMTRCPEQEQRLQRLERLPELARVLRSVFVSERKPALSMEVACARMVGSCCTIMSPGEMEKHLLLLSELLPDWLSLHRIRTDTYVKLDKAADLAHITARLAHQTRAEEGL
As to B4, the binding entry in test [1], in test [2] and in test [3] was “binds” throughout.
